The other results are listed elsewhere or left out. Single values are uncertain, as repeats are few or missing.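 Imaging used 1,536-well plates; nuclei positive for cleaved PARP by antibody were divided by total DNA-stained nuclei to yield the apoptosis fraction. Doses for screening kept most cells viable, and cell lines differ markedly in resting and induced cleaved-PARP levels.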
Test system: CBRC014 (line from a melanoma biopsy)
Assay: cleaved PARP positive nuclei fraction relative to DMSO control; melanoma cells; higher = more apoptosis
Details: library dose: low library concentration; 72 h

Compound	cleaved PARP positive nuclei fraction [%]
CCN(CC)CCNC(=O)c1c(C)[nH]c(/C=C2\C(=O)Nc3ccc(F)cc32)c1C [sunitinib] + O=c1cc(-c2cccc3c2Sc2ccccc2S3)oc(N2CCOCC2)c1 [KU55933] (first compound 0.4 µM, partner dose 1 µM)	83.7
CS(=O)(=O)c1ccc(C(=O)Nc2ccc(Cl)c(-c3ccccn3)c2)c(Cl)c1 [vismodegib] + CN(NC(=O)CC(=O)NN(C)C(=S)c1ccccc1)C(=S)c1ccccc1 [STA4783] (first compound 1 µM, partner dose 0.006 µM)	525
Cn1cnc2c(F)c(Nc3ccc(Br)cc3Cl)c(C(=O)NOCCO)cc21 [selumetinib] + C=CCNC1=C2C[C@@H](C)C[C@H](OC)[C@H](O)[C@@H](C)/C=C(\C)[C@H](OC(N)=O)[C@@H](OC)/C=C\C=C(/C)C(=O)NC(=CC1=O)C2=O [Tanespimycin] (first compound 0.015 µM, partner dose 0.002 µM)	80.6
Cn1cnc2c(F)c(Nc3ccc(Br)cc3Cl)c(C(=O)NOCCO)cc21 [selumetinib] + O=S(=O)(c1ccccc1)N(CC(F)(F)F)c1ccc(C(O)(C(F)(F)F)C(F)(F)F)cc1 [T0901317] (first compound 0.015 µM, partner dose 1.4 µM)	96.3
NC1(c2ccc(-c3nc4ccn5c(=O)[nH]nc5c4cc3-c3ccccc3)cc2)CCC1 + O=C(O)C(=O)Nc1sc2c(c1C(=O)O)CCNC2 [TCS401] (first compound 0.4 µM, partner dose 1.66667 µM)	90.2
CC1(C)CCC(c2ccc(Cl)cc2)=C(CN2CCN(c3ccc(C(=O)NS(=O)(=O)c4ccc(N[C@H](CCN5CCOCC5)CSc5ccccc5)c(S(=O)(=O)C(F)(F)F)c4)cc3)CC2)C1 + Nc1nc(F)nc2c1ncn2[C@@H]1O[C@H](CO)[C@@H](O)[C@@H]1O [fludarabine] (first compound 0.4 µM, partner dose 0.2 µM)	511
Cn1sc(=O)n(Cc2ccccc2)c1=O + C=CCNC1=C2C[C@@H](C)C[C@H](OC)[C@H](O)[C@@H](C)/C=C(\C)[C@H](OC(N)=O)[C@@H](OC)/C=C\C=C(/C)C(=O)NC(=CC1=O)C2=O [Tanespimycin] (first compound 0.4 µM, partner dose 0.002 µM)	81.1
Cn1cnc2c(F)c(Nc3ccc(Br)cc3Cl)c(C(=O)NOCCO)cc21 [selumetinib] + COc1ccc2c(c1)CCC1C2CCC2(C)C(NCCCCCCN3C(=O)C=CC3=O)CCC12 [U73122] (first compound 0.015 µM, partner dose 0.4 µM)	110
CCCCCCCCc1ccc(CCC(N)(CO)CO)cc1 [fingolimod] + CC(C)(C)c1cnc(CSc2cnc(NC(=O)C3CCNCC3)s2)o1 [SNS-032] (first compound 2 µM, partner dose 0.01 µM)	93.5
NC(=O)c1ccc(N(C(N)=O)c2c(F)cccc2F)nc1-c1ccc(F)cc1F + COCC[n+]1c2c(n(Cc3cnccn3)c1C)C(=O)c1ccccc1C2=O [YM155] (first compound 0.4 µM, partner dose 0.0004 µM)	95.1
NC1(c2ccc(-c3nc4ccn5c(=O)[nH]nc5c4cc3-c3ccccc3)cc2)CCC1 + CO[C@@H]1[C@H](N(C)C(=O)c2ccccc2)C[C@H]2O[C@]1(C)n1c3ccccc3c3c4c(c5c6ccccc6n2c5c31)C(=O)NC4 [Midostaurin] (first compound 0.4 µM, partner dose 0.08 µM)	88.3
CC1(C)CCC(c2ccc(Cl)cc2)=C(CN2CCN(c3ccc(C(=O)NS(=O)(=O)c4ccc(N[C@H](CCN5CCOCC5)CSc5ccccc5)c(S(=O)(=O)C(F)(F)F)c4)cc3)CC2)C1 + Cn1nnc2c(C(N)=O)ncn2c1=O [temozolomide] (first compound 0.4 µM, partner dose 2 µM)	1010
CN(c1ncccc1CNc1nc(Nc2ccc3c(c2)CC(=O)N3)ncc1C(F)(F)F)S(C)(=O)=O + CO[C@@H]1[C@H](N(C)C(=O)c2ccccc2)C[C@H]2O[C@]1(C)n1c3ccccc3c3c4c(c5c6ccccc6n2c5c31)C(=O)NC4 [Midostaurin] (first compound 0.08 µM, partner dose 0.08 µM)	113
Cn1sc(=O)n(Cc2ccccc2)c1=O + c1cc(-c2cnn3cc(-c4ccc(OCCN5CCCCC5)cc4)cnc23)ccn1 [Dorsomorphin] (first compound 0.4 µM, partner dose 0.4 µM)	98.2
CC(=O)O[C@@]12CO[C@@H]1C[C@H](O)[C@@]1(C)C(=O)[C@H](O)C3=C(C)[C@@H](OC(=O)[C@H](O)[C@@H](NC(=O)OC(C)(C)C)c4ccccc4)C[C@@](O)([C@@H](OC(=O)c4ccccc4)[C@H]21)C3(C)C [Docetaxel] + N#Cc1c(O)c2c(-c3ccc(-c4ccccc4O)cc3)csc2[nH]c1=O [A769662] (first compound 0.0001 µM, partner dose 2 µM)	142
Cn1cnc2c(F)c(Nc3ccc(Br)cc3Cl)c(C(=O)NOCCO)cc21 [selumetinib] + OCCn1cc(-c2cnc3nnn(Cc4ccc5ncccc5c4)c3n2)cn1 [PF04217903] (first compound 0.015 µM, partner dose 1 µM)	77.6
Cn1cnc2c(F)c(Nc3ccc(Br)cc3Cl)c(C(=O)NOCCO)cc21 [selumetinib] + Oc1cc(-c2nc(-c3ccccc3)[nH]c2-c2ccncc2)ccc1Cl [L779450] (first compound 0.015 µM, partner dose 0.2 µM)	94.8
Cn1sc(=O)n(Cc2ccccc2)c1=O + CCCCCCCCCCCC1=C(O)C(=O)C=C(O)C1=O [Embelin] (first compound 0.4 µM, partner dose 1.2 µM)	102
CCN(CC)CCNC(=O)c1c(C)[nH]c(/C=C2\C(=O)Nc3ccc(F)cc32)c1C [sunitinib] + CCc1ccc(CCOc2ccc(CC3SC(=O)NC3=O)cc2)nc1 [pioglitazone] (first compound 0.4 µM, partner dose 2 µM)	104

Two records picked at random from those above:
Compound	cleaved PARP positive nuclei fraction [%]
CCN(CC)CCNC(=O)c1c(C)[nH]c(/C=C2\C(=O)Nc3ccc(F)cc32)c1C [sunitinib] + O=c1cc(-c2cccc3c2Sc2ccccc2S3)oc(N2CCOCC2)c1 [KU55933] (first compound 0.4 µM, partner dose 1 µM)	83.7
CS(=O)(=O)c1ccc(C(=O)Nc2ccc(Cl)c(-c3ccccn3)c2)c(Cl)c1 [vismodegib] + CN(NC(=O)CC(=O)NN(C)C(=S)c1ccccc1)C(=S)c1ccccc1 [STA4783] (first compound 1 µM, partner dose 0.006 µM)	525

From the supplement of paper PMC4604168 (melanoma cell lines)
